Values quoted from earlier work in US10543174B2, “Modified release tablet composition comprising mirabegron” (SYNTHON B.V., priority 2016, dated 2020).
The name of at least one read-out is uncertain.

Conditions: BCS

## Nc1nc(CC(=O)Nc2ccc(CCNC[C@H](O)c3ccccc3)cc2)cs1 [Mirabegron, (R)-2-(2-aminothiazol-4-yl)-4′-[2-[(2-hydroxy-2-phenylethyl)amino]ethyl]acetic acid anilide]
  permeability: low permeability
